Reference: patent US20190192636A1
Results are given in words; binding and its absence hold for the method and conditions named. Some results given as binding are weak or reduced against the parent protein; the word gives no strength.

Sequences of proteins named here, by UniProt entry; tags and fusion partners are left off. A change or cut given only in a name is not applied to a line headed by its entry.
UniProt Q16787: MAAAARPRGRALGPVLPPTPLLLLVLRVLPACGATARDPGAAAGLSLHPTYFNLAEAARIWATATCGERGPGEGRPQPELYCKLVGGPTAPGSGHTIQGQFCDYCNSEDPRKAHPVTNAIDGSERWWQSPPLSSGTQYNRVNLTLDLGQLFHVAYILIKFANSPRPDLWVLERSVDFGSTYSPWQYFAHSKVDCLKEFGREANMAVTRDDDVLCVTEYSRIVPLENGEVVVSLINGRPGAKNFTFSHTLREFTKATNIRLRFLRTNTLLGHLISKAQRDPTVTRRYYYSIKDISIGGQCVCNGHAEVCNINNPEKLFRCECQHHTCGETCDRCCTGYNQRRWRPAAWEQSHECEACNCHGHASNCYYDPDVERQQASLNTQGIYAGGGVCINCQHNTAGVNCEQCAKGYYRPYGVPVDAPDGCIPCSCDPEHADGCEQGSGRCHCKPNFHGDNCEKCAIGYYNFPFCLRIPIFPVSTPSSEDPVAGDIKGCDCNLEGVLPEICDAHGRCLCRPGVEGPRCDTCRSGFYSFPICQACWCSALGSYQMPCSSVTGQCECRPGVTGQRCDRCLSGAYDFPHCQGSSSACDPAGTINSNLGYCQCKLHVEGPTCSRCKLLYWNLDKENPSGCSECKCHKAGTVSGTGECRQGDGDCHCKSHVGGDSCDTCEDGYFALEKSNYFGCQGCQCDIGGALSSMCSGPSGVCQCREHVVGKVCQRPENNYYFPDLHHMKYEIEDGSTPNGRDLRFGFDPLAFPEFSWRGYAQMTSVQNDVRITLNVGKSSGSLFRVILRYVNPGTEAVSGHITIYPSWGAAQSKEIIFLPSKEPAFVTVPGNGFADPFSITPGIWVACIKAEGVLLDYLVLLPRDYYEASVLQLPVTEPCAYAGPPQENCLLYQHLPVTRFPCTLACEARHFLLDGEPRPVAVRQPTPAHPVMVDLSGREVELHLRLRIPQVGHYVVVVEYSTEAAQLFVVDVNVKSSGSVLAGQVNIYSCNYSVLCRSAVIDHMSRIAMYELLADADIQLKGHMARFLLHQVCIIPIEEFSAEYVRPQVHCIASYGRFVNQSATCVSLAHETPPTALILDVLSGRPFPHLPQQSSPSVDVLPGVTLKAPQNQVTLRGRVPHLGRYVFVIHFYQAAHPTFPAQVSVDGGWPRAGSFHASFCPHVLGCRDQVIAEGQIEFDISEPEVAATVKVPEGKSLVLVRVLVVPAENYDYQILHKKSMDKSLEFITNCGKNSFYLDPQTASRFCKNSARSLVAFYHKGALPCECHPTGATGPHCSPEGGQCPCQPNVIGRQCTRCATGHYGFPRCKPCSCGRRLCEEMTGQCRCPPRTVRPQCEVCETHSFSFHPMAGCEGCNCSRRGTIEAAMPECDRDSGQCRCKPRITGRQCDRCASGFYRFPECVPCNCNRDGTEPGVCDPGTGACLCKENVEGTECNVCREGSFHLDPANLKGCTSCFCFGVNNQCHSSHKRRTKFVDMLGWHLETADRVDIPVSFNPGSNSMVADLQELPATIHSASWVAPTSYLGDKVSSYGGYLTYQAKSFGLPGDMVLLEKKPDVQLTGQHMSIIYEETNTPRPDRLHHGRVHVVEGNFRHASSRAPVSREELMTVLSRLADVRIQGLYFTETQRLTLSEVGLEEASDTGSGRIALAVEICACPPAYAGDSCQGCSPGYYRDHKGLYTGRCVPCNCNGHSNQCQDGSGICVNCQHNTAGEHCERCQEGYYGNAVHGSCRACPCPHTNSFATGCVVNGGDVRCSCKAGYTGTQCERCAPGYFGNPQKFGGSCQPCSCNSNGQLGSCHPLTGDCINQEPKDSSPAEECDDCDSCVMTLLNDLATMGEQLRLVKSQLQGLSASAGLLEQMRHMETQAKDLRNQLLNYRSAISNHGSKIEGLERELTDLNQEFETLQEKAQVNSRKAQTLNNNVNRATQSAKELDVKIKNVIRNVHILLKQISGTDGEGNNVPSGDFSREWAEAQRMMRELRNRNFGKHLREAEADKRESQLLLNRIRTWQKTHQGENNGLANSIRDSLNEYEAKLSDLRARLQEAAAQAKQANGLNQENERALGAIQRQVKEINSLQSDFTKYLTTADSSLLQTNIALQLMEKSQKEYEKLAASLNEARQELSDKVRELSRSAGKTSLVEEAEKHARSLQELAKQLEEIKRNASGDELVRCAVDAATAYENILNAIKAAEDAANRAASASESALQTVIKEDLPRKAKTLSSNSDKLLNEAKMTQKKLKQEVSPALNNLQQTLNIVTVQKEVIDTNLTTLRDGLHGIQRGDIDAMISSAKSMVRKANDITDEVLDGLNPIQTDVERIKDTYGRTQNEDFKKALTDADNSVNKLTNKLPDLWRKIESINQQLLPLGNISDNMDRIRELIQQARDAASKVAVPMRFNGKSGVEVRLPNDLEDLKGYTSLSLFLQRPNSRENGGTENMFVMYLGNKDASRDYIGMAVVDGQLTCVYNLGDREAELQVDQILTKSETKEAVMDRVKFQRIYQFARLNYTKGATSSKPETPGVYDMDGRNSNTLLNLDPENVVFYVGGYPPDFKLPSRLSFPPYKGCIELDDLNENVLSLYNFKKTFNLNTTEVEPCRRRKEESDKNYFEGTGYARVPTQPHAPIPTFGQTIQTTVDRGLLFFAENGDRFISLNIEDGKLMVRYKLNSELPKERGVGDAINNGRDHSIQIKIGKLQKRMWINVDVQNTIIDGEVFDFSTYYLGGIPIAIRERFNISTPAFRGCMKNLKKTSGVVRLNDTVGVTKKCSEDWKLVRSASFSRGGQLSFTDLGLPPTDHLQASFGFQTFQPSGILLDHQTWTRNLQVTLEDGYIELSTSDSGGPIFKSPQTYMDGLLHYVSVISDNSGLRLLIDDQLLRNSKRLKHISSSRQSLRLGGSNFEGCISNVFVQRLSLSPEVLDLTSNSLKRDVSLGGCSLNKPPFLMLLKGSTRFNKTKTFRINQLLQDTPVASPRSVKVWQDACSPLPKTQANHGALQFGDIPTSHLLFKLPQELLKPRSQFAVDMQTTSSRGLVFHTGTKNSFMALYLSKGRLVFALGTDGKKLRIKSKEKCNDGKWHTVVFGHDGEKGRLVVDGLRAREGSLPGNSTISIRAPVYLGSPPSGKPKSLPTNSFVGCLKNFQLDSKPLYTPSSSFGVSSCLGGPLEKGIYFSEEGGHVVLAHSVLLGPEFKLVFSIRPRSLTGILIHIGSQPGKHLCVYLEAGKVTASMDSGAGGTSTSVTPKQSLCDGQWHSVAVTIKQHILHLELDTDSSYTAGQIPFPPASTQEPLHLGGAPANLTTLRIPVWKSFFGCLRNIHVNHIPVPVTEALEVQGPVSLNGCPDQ
UniProt Q02388: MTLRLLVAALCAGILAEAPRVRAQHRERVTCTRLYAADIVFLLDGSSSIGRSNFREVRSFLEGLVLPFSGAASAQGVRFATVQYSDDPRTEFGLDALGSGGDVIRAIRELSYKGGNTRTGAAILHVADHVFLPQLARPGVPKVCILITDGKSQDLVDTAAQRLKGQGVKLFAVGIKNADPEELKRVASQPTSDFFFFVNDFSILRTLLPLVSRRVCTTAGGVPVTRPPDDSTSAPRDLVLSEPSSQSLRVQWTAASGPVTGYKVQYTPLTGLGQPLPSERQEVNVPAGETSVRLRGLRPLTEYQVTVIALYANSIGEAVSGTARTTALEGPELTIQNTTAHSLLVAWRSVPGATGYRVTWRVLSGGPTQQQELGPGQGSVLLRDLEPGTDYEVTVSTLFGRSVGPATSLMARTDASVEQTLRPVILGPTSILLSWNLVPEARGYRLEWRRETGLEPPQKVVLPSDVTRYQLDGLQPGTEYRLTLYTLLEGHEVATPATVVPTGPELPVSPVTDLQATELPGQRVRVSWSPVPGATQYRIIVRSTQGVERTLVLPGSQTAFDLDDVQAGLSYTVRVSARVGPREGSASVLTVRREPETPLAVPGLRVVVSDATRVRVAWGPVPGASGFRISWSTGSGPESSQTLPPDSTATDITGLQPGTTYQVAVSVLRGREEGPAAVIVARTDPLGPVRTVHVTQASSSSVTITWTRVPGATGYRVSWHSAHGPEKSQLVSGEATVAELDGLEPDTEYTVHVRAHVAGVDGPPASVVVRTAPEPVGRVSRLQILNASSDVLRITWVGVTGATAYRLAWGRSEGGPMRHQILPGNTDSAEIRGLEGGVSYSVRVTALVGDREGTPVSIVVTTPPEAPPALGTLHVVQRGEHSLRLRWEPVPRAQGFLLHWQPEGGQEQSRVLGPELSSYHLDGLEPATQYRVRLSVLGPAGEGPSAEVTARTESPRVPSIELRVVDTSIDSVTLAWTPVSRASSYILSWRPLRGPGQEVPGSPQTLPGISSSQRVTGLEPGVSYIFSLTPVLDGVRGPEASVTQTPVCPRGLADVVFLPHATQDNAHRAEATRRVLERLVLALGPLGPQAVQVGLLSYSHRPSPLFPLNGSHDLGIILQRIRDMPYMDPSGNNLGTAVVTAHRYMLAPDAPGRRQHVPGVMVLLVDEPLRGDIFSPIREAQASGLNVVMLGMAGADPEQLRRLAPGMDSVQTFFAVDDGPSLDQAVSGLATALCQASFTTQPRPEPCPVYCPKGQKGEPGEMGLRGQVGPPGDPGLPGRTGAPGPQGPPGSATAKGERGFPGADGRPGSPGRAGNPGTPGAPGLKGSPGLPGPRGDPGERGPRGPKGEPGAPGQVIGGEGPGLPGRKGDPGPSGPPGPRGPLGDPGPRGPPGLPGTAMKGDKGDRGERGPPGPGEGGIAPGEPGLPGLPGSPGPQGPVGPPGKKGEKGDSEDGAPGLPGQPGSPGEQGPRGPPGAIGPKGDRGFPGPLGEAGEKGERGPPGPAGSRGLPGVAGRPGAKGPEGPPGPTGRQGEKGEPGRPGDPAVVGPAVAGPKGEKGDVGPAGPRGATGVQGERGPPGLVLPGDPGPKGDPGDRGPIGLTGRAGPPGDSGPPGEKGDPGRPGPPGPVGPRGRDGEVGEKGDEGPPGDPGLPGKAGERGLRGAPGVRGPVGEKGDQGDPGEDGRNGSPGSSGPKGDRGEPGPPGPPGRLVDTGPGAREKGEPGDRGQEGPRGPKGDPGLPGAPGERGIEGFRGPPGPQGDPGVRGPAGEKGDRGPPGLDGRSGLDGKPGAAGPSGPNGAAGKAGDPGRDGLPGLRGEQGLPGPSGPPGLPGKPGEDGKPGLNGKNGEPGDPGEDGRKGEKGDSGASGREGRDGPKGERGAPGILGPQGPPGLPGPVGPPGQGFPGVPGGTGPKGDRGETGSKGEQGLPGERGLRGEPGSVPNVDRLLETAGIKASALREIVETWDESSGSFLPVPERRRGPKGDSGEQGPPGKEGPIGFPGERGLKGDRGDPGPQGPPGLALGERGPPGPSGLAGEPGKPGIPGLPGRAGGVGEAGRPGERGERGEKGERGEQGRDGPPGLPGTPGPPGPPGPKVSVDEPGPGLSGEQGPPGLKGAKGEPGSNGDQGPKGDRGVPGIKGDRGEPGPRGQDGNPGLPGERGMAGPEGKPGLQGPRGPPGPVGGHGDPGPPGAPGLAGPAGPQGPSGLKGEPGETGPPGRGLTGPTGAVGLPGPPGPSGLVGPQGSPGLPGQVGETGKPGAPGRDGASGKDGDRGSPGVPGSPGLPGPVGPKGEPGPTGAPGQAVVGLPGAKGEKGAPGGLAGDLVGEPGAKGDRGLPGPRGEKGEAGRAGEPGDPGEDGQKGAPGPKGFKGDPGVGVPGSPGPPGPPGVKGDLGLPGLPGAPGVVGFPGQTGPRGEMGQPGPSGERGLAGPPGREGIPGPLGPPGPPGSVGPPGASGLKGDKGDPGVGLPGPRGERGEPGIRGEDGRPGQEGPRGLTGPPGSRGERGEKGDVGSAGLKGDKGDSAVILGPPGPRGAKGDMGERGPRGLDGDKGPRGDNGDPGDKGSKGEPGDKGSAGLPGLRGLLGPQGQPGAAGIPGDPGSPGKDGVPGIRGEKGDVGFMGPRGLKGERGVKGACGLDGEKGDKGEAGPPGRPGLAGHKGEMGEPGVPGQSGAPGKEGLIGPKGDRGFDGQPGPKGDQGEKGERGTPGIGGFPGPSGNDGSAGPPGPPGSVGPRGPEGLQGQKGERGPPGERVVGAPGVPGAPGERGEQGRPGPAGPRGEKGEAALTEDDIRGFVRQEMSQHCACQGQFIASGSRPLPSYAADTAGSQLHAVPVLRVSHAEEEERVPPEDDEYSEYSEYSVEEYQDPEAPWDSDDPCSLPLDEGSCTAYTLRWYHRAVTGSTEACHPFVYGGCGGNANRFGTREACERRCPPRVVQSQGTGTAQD

Legend:
[1] = target: Laminin 332 (UniProt Q16787); assay: ELISA, Lam332-coated wells, supernatants of TR9 (HA-tagged C7), fNC1 detection, OD450
[2] = target: Laminin 332 (UniProt Q16787); assay: ELISA, Lam332-coated wells, supernatants
[3] = target: Laminin 332 (UniProt Q16787); assay: ELISA, Lam332-coated wells, bound C7 detected with anti-NC1 antibody (TR9 = HA-tagged C7)
[4] = target: Laminin 332 (UniProt Q16787); assay: ELISA, Lam332- or BSA-coated wells, TR8 supernatants, NC1-specific antibody + HRP secondary, OD450
[5] = target: Laminin 332 (UniProt Q16787); assay: ELISA, Lam332-coated wells, supernatants of TR8, TR10, ER1, fNC1 detection, OD450
[6] = target: Laminin 332 (UniProt Q16787); assay: ELISA, Lam332- or BSA-coated wells, conditioned supernatants (INXN-2002)
[7] = target: Laminin 332 (UniProt Q16787); assay: ELISA, Lam332-coated wells, bound C7 detected with anti-NC1 antibody
[8] = target: Laminin 332 (UniProt Q16787); assay: ELISA, Lam332- or BSA-coated wells, OD450; COL7 purified from CHO-DG44 cells
[9] = target: Laminin 332 (UniProt Q16787); assay: ELISA, Lam332-coated wells, supernatants of TR11, TR12.1, TR13, α-fNC1 detection, OD450
[10] = target: Laminin 332 (UniProt Q16787); assay: ELISA, Lam332-coated wells, supernatants of TR11, TR12.1, TR13

Measured: binding

HA-tagged C7 expressed by TR9 HA-GM-HDFs (LV-HA-COL7) (from UniProt Q02388 17-2944)
binds: [1] | [2] | [3]

Type VII collagen (C7) (from UniProt Q02388 17-2944)
binds: [4] | [2] | [5] | [6] | [7] | [8] | [9] | [10]
